From patent publication US20220356169A1, “TETRAZINES FOR HIGH CLICK RELEASE SPEED AND YIELD” (priority 2019, published 2022)
Values joined by “and” are separate entries in the source; they are usually repeats but may differ in a detail not shown here. Equal values may be shown once. For part of these data: For at least one compound, name, drawing or mass did not settle the structure. Some of these results come from one statement about several compounds together.

Legend:
[1] = test system: TCO Trigger on tumor-bound ADC; assay: In vivo reactivity between ADC AVP0458-TCO-MMAE and tetrazine activators (tumor activation study); details: LS174T tumor bearing mice; 125I-labeled ADC 2 mg/kg, activator 48 h later; FIG. 6A
Protocol: Female nude Balb/C mice were subcutaneously inoculated ca. 1×10^6 LS174T cells in the hind limb. Biodistribution studies started when the tumors reached 0.1-0.2 cm^3 size. Experiments were carried out to evaluate the reactivity between the TCO Trigger on tumor-bound ADC and activators 2.7, 2.8, 2.14 and 2.16 in LS174T xenografts, as previously performed for other activators [Rossin et al Nature Communications 2018, 9, 1484]. The activators were administered at a 20- to 100-lower dose than that used in previous activation and therapy studies (ca. 0.335 mmol/kg). […] Groups of tumor bearing mice (n=4) were injected with ^125I-labeled ADC (2 mg/kg) followed 48 h later by the activators (dose 1×: ca. 3.3 μmol/kg; dose 5×: ca. 16.7 μmol/kg) and, after 1 h, by [^111In]In-2.20 (ca. 0.33 μmol/kg). One group was injected with the same amount of ^125I-labeled ADC followed only by ^111In-2.20 49 h later. One group was injected only with ^111In-2.20 (non-specific probe binding). All mice were euthanized 23 h post-probe injection and the ^125I and ^111In uptakes in tumors were measured by γ-counting.

[2] = Second-order rate constant of the IEDDA reaction with TCO 3.2, stopped-flow UV-Vis, pseudo first-order conditions; format: physicochemical; details: 25% MeCN/PBS at 20° C.; mean ± SD (n = 5)
Protocol: The second-order rate constant of the IEDDA reaction between model TCO 3.2 and activators 2.7 or 2.8 in MeCN at 20° C. was determined (n=1) by UV-Vis spectrometry under second-order conditions. A cuvette was filled with a solution of activator (3 mL 0.083 mM in MeCN), and equilibrated at 20° C. Next, a solution of TCO 3.2 (10.0 μL, 25 mM in DMSO) was added. The absorption at 540 nm was measured every second in a time course experiment. From the decay of this absorption, the conversion x was calculated. The second-order rate constant k2 was determined from the slope of the curve of a plot of 1/c-1/c0 versus time. The second-order rate constant of the IEDDA reaction between model TCO 3.2 and activators 2.7, 2.8, 2.14, 2.16, or 2.17 in 25% MeCN/PBS at 20° C. was determined (n=5) by stopped-flow UV-Vis spectrometry under pseudo first-order conditions. Tetrazine solutions (0.25 mM in 25% MeCN/PBS) and TCO 3.2 (3.45 mM in 25% MeCN/PBS) were mixed in a volume ratio of 1:1, resulting in a concentration of 0.125 mM and 1.73 mM, respectively. The absorption at 520 nm was measured every 50 ms, and from the decay of this absorption, the pseudo first-order rate constant k1′ was determined by a nonlinear Simplex regression analysis of the data points using BioKine software. The second-order rate constant k2 was calculated: k2=k1′/c,TCO. […]

ADC AVP0458-TCO-MMAE = assay: Triggered drug (MMAE) release from ADC in 50% mouse plasma, HPLC-SIM-MS; details: 37° C.
Protocol: In a 1.5 mL vial, the following was combined: 650 μL mouse plasma, 600 μL PBS, 20 μL ADC (1.62 μg/μL in PBS) and 7.5 μL d8-MMAE solution (0.167 μg/μL, internal standard). Next, aliquots of 20 μL were prepared to which 5.2 μL of a tetrazine solution (0.25 mM in 1:1 DMSO/H2O) was added and the solution was incubated at 37° C. At various times, 100 μL of cold MeCN was added to the aliquot and the mixture was vortexed, stored at 4° C. for 30 min. and centrifuged. 20 μL of supernatant was taken and combined with 100 μL of 1% formic acid (aq) solution. This sample was analysed with HPLC-SIM-MS to quantify the ratio of free MMAE and d8-MMAE, which is a measure of the release yield.

[3] = typical; cited from earlier work
[4] = test system: lysozyme PEGylated with Masking Moiety 3.1; assay: Protein PEGylation and subsequent de-PEGylation in vitro, SDS-PAGE; details: overnight incubation of the PEGylated derivative at 37° C. with excess activator
[5] = test system: anti-TAG72 antibody scFv fragment PEGylated with Masking Moiety 3.1; assay: as above; details: overnight incubation of the PEGylated derivative at 37° C. with excess activator
[6] = test system: anti-TAG72 antibody scFv fragment dimeric and trimeric species conjugated via the TCO; assay: Protein-protein conjugation and subsequent release in vitro, SDS-PAGE; parameters: key to the marks not given beside the values; details: overnight incubation at 37° C. with excess activator, Coomassie blue

Row | SMILES | MMAE release from ADC AVP0458-TCO-MMAE, Release (%) (ADC AVP0458-TCO-MMAE; 24 h, mean ± SD (n = 3)) | Increase in native band intensities, lysozyme [4] | Increase in native band intensities, mAb fragment [5] | Monomeric scFv fragment band intensity [6] | other results
1 | O=C(CCCC(=O)Nc1cnccc1-c1nnc(-c2ccncc2NC(=O)CCCC(=O)NCCOCCOCCOCCOCCOCCOCCOCCOCCOCCO)nn1)NCCOCCOCCOCCOCCOCCOCCOCCOCCOCCO [2.16, N^1,N^1′-(4,4′-(1,2,4,5-Tetrazine-3,6-diyl)bis(pyridine-4,3-diyl))bis(N^5-(29-hydroxy-3,6,9,12,15,18,21,24,27-nonaoxanonacosyl)glutaramide)] |  |  |  |  | in vivo reaction yield between the TCO and activator [1]: 43-65%
2 | Cc1nnc(C)nn1 [2.17, 3,6-bismethyl-tetrazine, reference compound] | 96.4 ± 0.7% |  |  |  | Calculated k2 values for the reaction between tetrazine activators and TCO 3.2 in PBS [2]: 29.0 ± 0.4 M⁻¹ s⁻¹; MMAE release from ADC AVP0458-TCO-MMAE, Release (%) (ADC AVP0458-TCO-MMAE; 2 min after reaction with activator): 2.5%; MMAE release from ADC AVP0458-TCO-MMAE, Release (%) (ADC AVP0458-TCO-MMAE; 10 min): 44.8%; MMAE release from ADC AVP0458-TCO-MMAE, Release (%) (ADC AVP0458-TCO-MMAE; 1 h): 79.4%; MMAE release from ADC AVP0458-TCO-MMAE, Release (%) (ADC AVP0458-TCO-MMAE; 5 h): 87.7%; MMAE release level, in words (ADC AVP0458-TCO-MMAE; after 24h incubation): high MMAE release; time the release takes [3]: several hours
3 | c1ccc(-c2nnc(-c3ccccn3)nn2)nc1 [2.18, 3,6-bis(2-pyridinyl)-tetrazine, reference compound] | 11-16% and 11.4 ± 1.8% | − | − | ++ | 
4 | c1cc(-c2nnc(-c3ccncc3)nn2)ccn1 [2.19, 3,6-bis(4-pyridinyl)-tetrazine, reference compound] | 16.0 ± 0.5% | − | − | ++ | MMAE release from ADC AVP0458-TCO-MMAE, Release (%) (ADC AVP0458-TCO-MMAE; 24 h, mean ± SD (n = 3), listed as 3,6-bis(4-pyridinyl)-tetrazine): 11-16%
